This is an account of results in paper PMC4689212.

The chains behind the UniProt entries cited, without tags or fusion partners. Residues count along the entry.
UniProt P37173, residues 23-567: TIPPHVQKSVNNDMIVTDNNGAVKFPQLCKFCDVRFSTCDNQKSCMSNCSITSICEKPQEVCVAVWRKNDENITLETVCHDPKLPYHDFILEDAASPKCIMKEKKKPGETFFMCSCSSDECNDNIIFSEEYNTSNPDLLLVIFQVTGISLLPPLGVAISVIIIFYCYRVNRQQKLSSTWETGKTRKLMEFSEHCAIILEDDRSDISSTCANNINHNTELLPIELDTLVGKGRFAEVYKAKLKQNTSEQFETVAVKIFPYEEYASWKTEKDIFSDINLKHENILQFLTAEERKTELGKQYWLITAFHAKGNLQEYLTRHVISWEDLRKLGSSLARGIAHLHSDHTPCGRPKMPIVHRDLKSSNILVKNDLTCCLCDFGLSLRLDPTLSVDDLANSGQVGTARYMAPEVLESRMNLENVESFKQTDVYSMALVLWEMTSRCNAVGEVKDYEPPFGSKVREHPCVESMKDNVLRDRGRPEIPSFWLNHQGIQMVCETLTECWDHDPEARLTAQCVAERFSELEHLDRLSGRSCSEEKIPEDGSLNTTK
UniProt P26012, residues 43-769: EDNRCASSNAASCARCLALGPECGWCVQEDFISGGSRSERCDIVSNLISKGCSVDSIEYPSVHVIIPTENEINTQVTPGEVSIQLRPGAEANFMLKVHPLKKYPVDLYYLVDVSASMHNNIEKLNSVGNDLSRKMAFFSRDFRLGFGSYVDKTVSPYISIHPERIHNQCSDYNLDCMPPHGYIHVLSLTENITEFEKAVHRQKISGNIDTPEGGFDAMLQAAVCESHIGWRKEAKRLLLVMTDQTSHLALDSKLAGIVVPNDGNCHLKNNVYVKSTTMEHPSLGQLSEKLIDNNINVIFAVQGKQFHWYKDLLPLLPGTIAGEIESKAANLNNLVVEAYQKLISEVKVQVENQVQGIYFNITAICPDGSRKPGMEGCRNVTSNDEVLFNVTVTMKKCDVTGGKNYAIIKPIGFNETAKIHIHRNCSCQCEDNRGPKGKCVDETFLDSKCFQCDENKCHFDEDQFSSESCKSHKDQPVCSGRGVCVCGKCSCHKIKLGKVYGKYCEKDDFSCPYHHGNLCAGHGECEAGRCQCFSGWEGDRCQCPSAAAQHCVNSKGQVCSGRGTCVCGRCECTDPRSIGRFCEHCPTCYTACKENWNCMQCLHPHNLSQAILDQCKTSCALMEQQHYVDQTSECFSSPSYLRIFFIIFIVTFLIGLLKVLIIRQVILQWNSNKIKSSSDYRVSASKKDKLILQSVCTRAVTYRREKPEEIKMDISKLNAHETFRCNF

Results are given in words; binding and its absence hold for the method and conditions named. Binding seen in cells or lysates may run through a third protein. Some binding calls cover weakened binding; strength is not graded here.

Assay [1] deals with T1, β8 integrin (Itgb8), endogenous in mouse brain (mouse (endogenous in neonatal brain)) (UniProt Q0VBD0).
T1 sequence: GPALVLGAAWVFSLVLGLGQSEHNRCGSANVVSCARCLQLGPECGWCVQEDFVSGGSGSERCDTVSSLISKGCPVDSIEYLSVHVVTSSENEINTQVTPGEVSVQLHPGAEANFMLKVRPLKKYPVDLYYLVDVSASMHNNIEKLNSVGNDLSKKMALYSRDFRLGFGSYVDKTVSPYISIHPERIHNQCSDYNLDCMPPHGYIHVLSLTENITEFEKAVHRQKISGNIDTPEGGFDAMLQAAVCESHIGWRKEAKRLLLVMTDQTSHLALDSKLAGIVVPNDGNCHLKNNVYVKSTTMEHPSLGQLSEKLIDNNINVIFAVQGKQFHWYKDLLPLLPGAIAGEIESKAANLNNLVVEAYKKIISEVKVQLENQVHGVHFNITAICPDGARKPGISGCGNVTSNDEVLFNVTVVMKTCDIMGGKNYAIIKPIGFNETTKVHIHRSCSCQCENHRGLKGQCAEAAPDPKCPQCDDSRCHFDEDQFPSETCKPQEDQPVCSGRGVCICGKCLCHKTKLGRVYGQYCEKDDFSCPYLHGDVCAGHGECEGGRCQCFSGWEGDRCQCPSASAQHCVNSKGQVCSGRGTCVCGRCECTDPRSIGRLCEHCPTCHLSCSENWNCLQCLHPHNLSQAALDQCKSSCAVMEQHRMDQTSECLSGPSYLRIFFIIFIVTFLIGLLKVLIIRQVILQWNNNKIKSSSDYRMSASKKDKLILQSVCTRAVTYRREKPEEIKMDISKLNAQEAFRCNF
Briefly: co-IP; endogenous proteins in detergent-soluble lysates of wild-type neonatal mouse brains; β8-/- brain lysates as control.

The next assay addresses TGFβR2 (UniProt P37173). Briefly: co-IP; HEK-293T cells transfected with Nrp1 (wild type or deletion constructs) and TGFβR2; protein complexes detected (Fig. S8E-G, legend not shown).
Assay [2] addresses V5-tagged human β8 integrin (human) (UniProt P26012). Briefly: co-IP; HEK-293 cells co-transfected with Nrp1 (full-length rat or deletion constructs) and V5-tagged human β8 integrin; detergent-soluble lysates (RIPA) immunoprecipitated with anti-V5, immunoblotted with anti-Nrp1. In general terms: In western blotting, separated proteins are transferred to a membrane and probed.

Turning to “Neuropilin 1 (Nrp1), endogenous in mouse brain (from UniProt P97333 22-923) (receptor)”, in assay [1], the binding entry is reported as “binds”.

On to “Nrp1 (transfected, in the experiment with TGFβR2) (from UniProt Q9QWJ9 22-922) (receptor)”, for which the binding result with TGFβR2 is recorded as “binds”.

Turning to “full-length rat Nrp1 (from UniProt Q9QWJ9 22-922) (receptor)”, the binding result in assay [2] is reported as “binds”.
